Data reported in PubChem BioAssay AID330 (DTP/NCI, 2004).
The list shows only some results of the screen, not a fair sample: it gathers tests that were run many times, whatever their T/C, doses with no T/C, and many T/C values between a quarter and a half above the control. Other doses and runs of a compound stand elsewhere. T/C: endpoint of the treated group in % of that of the vehicle group. Some doses have a count of surviving animals in place of a T/C: the source files T/C as zero there, which appears to mark a toxic dose or a test without result, not a measured value. Some survivor counts are full or nearly so, which does not show that the dose was tolerated: the source hardly ever lists a survival T/C far under the control, and the zero likely stands for such cases as well. Survivors were counted at the toxicity check, usually on the fifth day, unless a day is given; later deaths do not show. Schedule codes are those of the source, read here as Q, the interval in days (D) or hours (H), X, the number of doses. Some entries were tested several times; the values are given in rising order. Where survival is the endpoint, the PubChem record calls one and a half times the control and up active, and a quarter to a half above the control has no call in these data; cut-offs in other NCI protocols can differ. Some T/C values are followed by the survivors on the day toxicity was checked, most often the fifth; without a count, all were alive then.

System: P388 leukemia ip, CD2F1 mice, survival T/C
Assay: NCI In Vivo Anticancer Drug Screen. Data for tumor model P388 Leukemia (intraperitoneal) in CD2F1 (CDF1) mice
Settings: T/C endpoint: median survival time, higher T/C = longer survival
[1] = dose: 200.0 mg/kg/injection, schedule: Q01DX005 (ip), vehicle: saline
[2] = dose: 50.0 mg/kg/injection, schedule: Q01DX005 (ip), vehicle: Klucel (hydroxypropylcellulose) (HPC)
[3] = dose: 400.0 mg/kg/injection, schedule: Q01DX001 (ip), vehicle: saline with Tween-80
[4] = dose: 200.0 mg/kg/injection, schedule: Q01DX005 (ip), vehicle: Klucel (hydroxypropylcellulose) (HPC)
[5] = dose: 25.0 mg/kg/injection, schedule: Q01DX005 (ip), vehicle: saline with Tween-80
[6] = dose: 50.0 mg/kg/injection, schedule: Q01DX005 (ip), vehicle: saline with Tween-80
[7] = dose: 100.0 mg/kg/injection, schedule: Q01DX009 (ip), vehicle: saline with Tween-80
[8] = dose: 100.0 mg/kg/injection, schedule: Q01DX005 (ip), vehicle: saline with Tween-80
[9] = dose: 200.0 mg/kg/injection, schedule: Q01DX005 (ip), vehicle: saline with Tween-80
[10] = dose: 400.0 mg/kg/injection, schedule: Q04DX002 (ip), vehicle: saline
[11] = dose: 200.0 mg/kg/injection, schedule: Q01DX009 (ip), vehicle: saline
[12] = dose: 200.0 mg/kg/injection, schedule: Q01DX009 (ip), vehicle: saline with Tween-80
[13] = dose: 200.0 mg/kg/injection, schedule: Q01DX009 (ip), vehicle: Klucel (hydroxypropylcellulose) (HPC)

COc1ccc(OC)c2c1CCC(O)(C#N)C2 (centres undefined)
survivor count (dose: 1.56 mg/kg/injection, schedule: Q01DX009 (ip), vehicle: other): 6 of 6
survivor count (dose: 12.5 mg/kg/injection, schedule: Q01DX009 (ip), vehicle: other): 6 of 6
survivor count (dose: 25.0 mg/kg/injection, schedule: Q01DX009 (ip), vehicle: other): 1 of 6 and 3 of 6
survivor count (dose: 50.0 mg/kg/injection, schedule: Q01DX009 (ip), vehicle: other): 0 of 6

O=C1C(c2cnccn2)=C(O)c2ccccc21
survivor count (dose: 120.0 mg/kg/injection, schedule: Q01DX005 (ip), vehicle: saline with Tween-80): 0 of 6
survivor count (dose: 240.0 mg/kg/injection, schedule: Q01DX005 (ip), vehicle: saline with Tween-80): 0 of 6

C[CH2][Sn]([CH2]C)([CH2]C)[NH]S(=O)(=O)c1ccc(C)cc1
survivor count (dose: 6.25 mg/kg/injection, schedule: Q01DX009 (ip), vehicle: Klucel (hydroxypropylcellulose) (HPC)): 5 of 6
survivor count (dose: 12.5 mg/kg/injection, schedule: Q01DX009 (ip), vehicle: Klucel (hydroxypropylcellulose) (HPC)): 0 of 6

CC(C)(C)OC(=O)N1CC(O)CC1C(=O)O (centres undefined)
survivor count [1]: 0 of 5

O=C1OC(c2ccccc2)=N/C1=C\c1ccc(Br)cc1
survivor count [2]: 5 of 5

COc1cc2c3c4c(ccc3c1OC)CCCN4CC2
survivor count (dose: 200.0 mg/kg/injection, schedule: Q01DX005 (ip), vehicle: Klucel + Tween-80): 0 of 6

Cc1ccc(NCCCC2CCCN3CCCCC23)c2c(=O)c3cc(O)ccc3sc12 (centres undefined)
survivor count (dose: 200.0 mg/kg/injection, schedule: Q01DX001 (ip), vehicle: saline with Tween-80): 0 of 6
survivor count [3]: 0 of 6

CC1(C)CC(OP2(=O)NCCCO2)CC(C)(C)N1O (centres undefined)
T/C (dose: 13.75 mg/kg/injection, schedule: Q01DX001 (ip), vehicle: saline): 133 % of control

O=C1NC(=O)N(C(F)(F)F)C(F)(F)N1C(F)(F)F
survivor count [4]: 0 of 6

CN1CCc2cc3c(c4c2C1C(O)c1ccccc1-4)OCO3 (centres undefined)
survivor count (dose: 0.5 mg/kg/injection, schedule: Q01DX009 (ip), vehicle: acid diluted with saline): 0 of 6 and 6 of 6
survivor count (dose: 1.0 mg/kg/injection, schedule: Q01DX009 (ip), vehicle: acid diluted with saline): 6 of 6

O=C([O][Sn]([O]C(=O)c1ccccc1)([c]1ccccc1)[c]1ccccc1)c1ccccc1
T/C (dose: 25.0 mg/kg/injection, schedule: Q01DX005 (ip), vehicle: Klucel (hydroxypropylcellulose) (HPC)): 125 % of control [5 of 6 alive]
survivor count [2]: 1 of 6
survivor count (dose: 100.0 mg/kg/injection, schedule: Q01DX005 (ip), vehicle: Klucel (hydroxypropylcellulose) (HPC)): 0 of 6
survivor count [4]: 0 of 6

C1=C(CC2=C[P+](c3ccccc3)(c3ccccc3)C=C(c3ccccc3)O2)OC(c2ccccc2)=C[P+]1(c1ccccc1)c1ccccc1
T/C (dose: 1.5 mg/kg/injection, schedule: Q01DX005 (ip), vehicle: saline with Tween-80): 125 % of control
T/C (dose: 1.5 mg/kg/injection, schedule: Q01DX005 (ip), vehicle: saline): 127 % of control
T/C (dose: 3.0 mg/kg/injection, schedule: Q01DX005 (ip), vehicle: saline with Tween-80): 125 % of control [4 of 5 alive]
survivor count (dose: 6.0 mg/kg/injection, schedule: Q01DX005 (ip), vehicle: saline with Tween-80): 0 of 5
survivor count (dose: 6.0 mg/kg/injection, schedule: Q01DX005 (ip), vehicle: saline): 2 of 5
survivor count (dose: 12.5 mg/kg/injection, schedule: Q01DX005 (ip), vehicle: saline with Tween-80): 4 of 5
survivor count [5]: 0 of 5
survivor count [6]: 0 of 5

C[C@@H]1CN(C(=O)CCOS(C)(=O)=O)[C@@H](C)CN1C(=O)CCOS(C)(=O)=O
T/C (dose: 12.5 mg/kg/injection, schedule: Q04DX003 (ip), vehicle: saline): 145 % of control
survivor count (dose: 600.0 mg/kg/injection, schedule: Q04DX003 (ip), vehicle: saline with Tween-80): 4 of 6

Cn1c(N)c(N=O)c(=O)n(C)c1=O
survivor count (dose: 720.0 mg/kg/injection, schedule: Q01DX009 (ip), vehicle: saline with Tween-80): 5 of 6

Cc1ccc(NC(=O)N(CCCCl)N=O)cc1
survivor count [7]: 6 of 6
survivor count (dose: 400.0 mg/kg/injection, schedule: Q04DX003 (ip), vehicle: saline with Tween-80): 6 of 6

COc1cc(O)c2c(c1)C(O)C(O)CC1OC1C(=O)/C=C/CC(C)OC2=O (centres undefined)
survivor count [5]: 4 of 6
survivor count [6]: 0 of 6
survivor count [8]: 0 of 6
survivor count [9]: 0 of 6

Cn1c(=O)c2c(c3ccccc31)Oc1oc3ccc4ccccc4c3c(=O)c1C2
survivor count (dose: 50.0 mg/kg/injection, schedule: Q01DX009 (ip), vehicle: saline with Tween-80): 6 of 6

CCN(CC)CCCNc1nnnc2ccccc12
survivor count [10]: 1 of 6

NCCc1cc(O)c(O)c(O)c1
T/C (dose: 100.0 mg/kg/injection, schedule: Q01DX009 (ip), vehicle: saline): 127 % of control
T/C [11]: 140 and 143 % of control
T/C (dose: 600.0 mg/kg/injection, schedule: Q01DX009 (ip), vehicle: saline): 142 % of control [5 of 6 alive]

N=c1c2c(C(N)=O)cn(C3OC(CO)C(O)C3O)c2ncn1N (centres undefined)
T/C (dose: 6.25 mg/kg/injection, schedule: Q01DX005 (ip), vehicle: water): 131 % of control
T/C (dose: 12.5 mg/kg/injection, schedule: Q01DX005 (ip), vehicle: water): 132 % of control
T/C (dose: 25.0 mg/kg/injection, schedule: Q01DX005 (ip), vehicle: water): 142 % of control
survivor count (dose: 100.0 mg/kg/injection, schedule: Q01DX005 (ip), vehicle: water): 6 of 6

C=CCN(CC=C)CC(C)(O)CNc1cc(OC)cc2cccnc12 (centres undefined)
survivor count [1]: 0 of 5

CCn1c2ccccc2c2cc(NC(N)=S)ccc21
survivor count [8]: 2 of 5
survivor count [9]: 0 of 5

Cc1cc(Nc2ccc(N(C)C)cc2)c2cc(N(C)C)ccc2n1
survivor count [12]: 3 of 6

CC1CC=[N+]([O-])C1(C)C (centres undefined)
survivor count [7]: 6 of 6
survivor count [12]: 6 of 6

O=C1CCCC(O)=C1[Se]C1=C(O)CCCC1=O
survivor count (dose: 100.0 mg/kg/injection, schedule: Q04DX002 (ip), vehicle: saline): 0 of 6
survivor count (dose: 200.0 mg/kg/injection, schedule: Q04DX002 (ip), vehicle: saline): 1 of 6
survivor count [10]: 0 of 6

O=S1(=O)CCN(Cc2ccco2)CC1
survivor count [13]: 3 of 6

COc1cccc2c1C(=O)c1c(O)c3c(c(O)c1C2=O)CC(O)(C(=O)CO)CC3OC1CC(NCC2(O)OCC(O)C(O)C2O)C(O)C(C)O1 (centres undefined)
T/C (dose: 7.25 mg/kg/injection, schedule: Q04DX003 (ip), vehicle: water): 142 % of control

CC1(C)CO[Se](=O)OC1
survivor count (dose: 6.25 mg/kg/injection, schedule: Q01DX009 (ip), vehicle: saline): 2 of 6
survivor count (dose: 12.5 mg/kg/injection, schedule: Q01DX009 (ip), vehicle: saline): 0 of 6

O=C(NCc1ccc(Cl)cc1)OCc1c2ccccc2cc2ccccc12
survivor count [13]: 6 of 6

N/C(Cc1noc2ccccc12)=N\O
survivor count [11]: 3 of 6

N#CC=Cc1ccc([N+](=O)[O-])s1 (mixture of isomers)
T/C [6]: 130 and 131 % of control
survivor count [8]: 3 of 6 and 4 of 6
survivor count [9]: 0 of 6

CC1(C)C=Cc2cc3c(cc2O1)OC[C@H]1c2cc4c(cc2O[C@@H]31)OCO4
survivor count (dose: 100.0 mg/kg/injection, schedule: Q04DX002 (ip), vehicle: Klucel (hydroxypropylcellulose) (HPC)): 6 of 6
survivor count (dose: 200.0 mg/kg/injection, schedule: Q04DX002 (ip), vehicle: Klucel (hydroxypropylcellulose) (HPC)): 6 of 6

CCCCNC(=S)NNC(=O)CNC(c1ccc(OC)cc1)C(CC)c1ccc(OC)cc1 (centres undefined)
survivor count [3]: 0 of 6

O=c1c2cc3ccccc3cc2c(=O)n2n1CC=CC2
survivor count [13]: 6 of 6
